Assay results taken from PubChem BioAssay AID328 (DTP/NCI, 2004).
The list does not hold the whole screen: it gathers tests that were run many times, whatever their T/C, doses with no T/C, and many T/C values between a quarter and a half above the control. Further doses and runs are listed elsewhere. T/C: endpoint of the treated group in % of that of the vehicle group. Some entries give survivors of the animals treated and no T/C: the source holds a T/C of zero for them, seemingly a mark for toxic or unscored doses. Some survivor counts are full or nearly so, which does not show that the dose was tolerated: the source hardly ever lists a survival T/C far under the control, and the zero likely stands for such cases as well. Counts of survivors are from the toxicity check (mostly the fifth day) where no day follows; animals may have died later. Schedules are NCI's codes, taken here to give the interval after Q, in days (D) or hours (H), and the number of doses after X. Some entries were tested several times; their values stand side by side, smallest first. Where survival is the endpoint, the PubChem record calls one and a half times the control and up active, and a quarter to a half above the control has no call in these data; cut-offs in other NCI protocols can differ. Some T/C values carry the count of animals alive at the toxicity check (mostly the fifth day); where none is given, no animal had died by that day.

System: BDF1 mice, P388 leukemia ip, median survival T/C
Assay: NCI In Vivo Anticancer Drug Screen. Data for tumor model P388 Leukemia (intraperitoneal) in B6D2F1 (BDF1) mice
Details: T/C endpoint: median survival time, higher T/C = longer survival
Summary of the method: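 Steps: implant the tumour, treat one group with compound and another with vehicle, record survival, then divide treated by control.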

[1] = dose: 25.0 mg/kg/injection, schedule: Q01DX009 (ip), vehicle: saline with Tween-80
[2] = dose: 100.0 mg/kg/injection, schedule: Q01DX009 (ip), vehicle: saline with Tween-80
[3] = dose: 150.0 mg/kg/injection, schedule: Q04DX003 (ip), vehicle: saline with Tween-80
[4] = dose: 200.0 mg/kg/injection, schedule: Q01DX009 (ip), vehicle: saline
[5] = dose: 400.0 mg/kg/injection, schedule: Q01DX009 (ip), vehicle: saline sonified
[6] = dose: 200.0 mg/kg/injection, schedule: Q04DX003 (ip), vehicle: saline with Tween-80
[7] = dose: 400.0 mg/kg/injection, schedule: Q04DX003 (ip), vehicle: saline with Tween-80
[8] = dose: 100.0 mg/kg/injection, schedule: Q01DX009 (ip), vehicle: saline
[9] = dose: 12.5 mg/kg/injection, schedule: Q01DX009 (ip), vehicle: saline with Tween-80

## CCN(CCP(c1ccccc1)c1ccccc1)CCP(c1ccccc1)c1ccccc1
dose: 1.7 mg/kg/injection, schedule: Q01DX009 (ip), vehicle: saline with Tween-80
  T/C: 125 % of control
dose: 2.6 mg/kg/injection, schedule: Q01DX009 (ip), vehicle: saline with Tween-80
  T/C: 125 % of control
dose: 4.0 mg/kg/injection, schedule: Q01DX009 (ip), vehicle: saline with Tween-80
  T/C: 133 and 144 % of control
dose: 6.0 mg/kg/injection, schedule: Q01DX009 (ip), vehicle: saline with Tween-80
  T/C: 140 % of control
dose: 9.0 mg/kg/injection, schedule: Q01DX009 (ip), vehicle: saline with Tween-80
  T/C: 148 % of control
[1]
  survivor count: 2 of 6
[2]
  survivor count: 4 of 6
[3]
  T/C: 145 % of control

## CCOC(=O)CSc1nc2nc(Cl)c(Cl)nc2[nH]1
dose: 25.0 mg/kg/injection, schedule: Q04DX003 (ip), vehicle: saline with Tween-80
  survivor count: 3 of 6

## COc1ccc(C(SCC(N)C(=O)O)(c2ccccc2)c2ccccc2)cc1 (configuration not stated)
dose: 3.12 mg/kg/injection, schedule: Q01DX009 (ip), vehicle: Klucel (hydroxypropylcellulose) (HPC)
  T/C: 141 % of control [5 of 6 alive]
dose: 4.12 mg/kg/injection, schedule: Q01DX009 (ip), vehicle: Klucel (hydroxypropylcellulose) (HPC)
  T/C: 136 % of control
dose: 12.5 mg/kg/injection, schedule: Q01DX009 (ip), vehicle: Klucel (hydroxypropylcellulose) (HPC)
  T/C: 145 % of control
dose: 22.0 mg/kg/injection, schedule: Q04DX003 (ip), vehicle: Klucel (hydroxypropylcellulose) (HPC)
  T/C: 145 % of control
dose: 25.0 mg/kg/injection, schedule: Q01DX009 (ip), vehicle: Klucel (hydroxypropylcellulose) (HPC)
  survivor count: 6 of 6
dose: 50.0 mg/kg/injection, schedule: Q01DX009 (ip), vehicle: Klucel (hydroxypropylcellulose) (HPC)
  survivor count: 3 of 6
dose: 100.0 mg/kg/injection, schedule: Q01DX009 (ip), vehicle: Klucel (hydroxypropylcellulose) (HPC)
  survivor count: 0 of 6 and 6 of 6
dose: 100.0 mg/kg/injection, schedule: Q04DX003 (ip), vehicle: Klucel (hydroxypropylcellulose) (HPC)
  survivor count: 4 of 6
dose: 150.0 mg/kg/injection, schedule: Q04DX003 (ip), vehicle: Klucel (hydroxypropylcellulose) (HPC)
  survivor count: 1 of 6
dose: 200.0 mg/kg/injection, schedule: Q04DX003 (ip), vehicle: Klucel (hydroxypropylcellulose) (HPC)
  survivor count: 5 of 6 and 6 of 6

## CS(=O)(=O)OCCN(CCOS(C)(=O)=O)c1cccc(Cl)c1
dose: 5.5 mg/kg/injection, schedule: Q01DX009 (ip), vehicle: Klucel (hydroxypropylcellulose) (HPC)
  T/C: 136 % of control
dose: 8.3 mg/kg/injection, schedule: Q01DX009 (ip), vehicle: Klucel (hydroxypropylcellulose) (HPC)
  T/C: 145 % of control
dose: 12.5 mg/kg/injection, schedule: Q04DX003 (ip), vehicle: saline
  T/C: 130 % of control
dose: 25.0 mg/kg/injection, schedule: Q04DX003 (ip), vehicle: saline
  T/C: 140 % of control
dose: 33.0 mg/kg/injection, schedule: Q04DX003 (ip), vehicle: other
  T/C: 145 % of control

## O=C(CCCCN1CCc2[nH]c3ccc(F)cc3c2C1)c1ccc(F)cc1
dose: 400.0 mg/kg/injection, schedule: Q01DX001 (ip), vehicle: Klucel (hydroxypropylcellulose) (HPC)
  survivor count: 0 of 6

## O=S(=O)(O)CCN(CCO)CCO
[4]
  survivor count: 6 of 6

## COc1cc(C=O)cc(O)c1O
[5]
  T/C: 130 % of control
  survivor count: 5 of 6

## CCOP(=S)(N1CC1C)N1CC1C (configuration not stated)
dose: 66.0 mg/kg/injection, schedule: Q01DX007 (ip), vehicle: saline with Tween-80
  T/C: 131 % of control
dose: 100.0 mg/kg/injection, schedule: Q04DX003 (ip), vehicle: saline with Tween-80
  T/C: 133 % of control
[6]
  T/C: 125 % of control
[7]
  survivor count: 6 of 6

## O=C1NC(=O)C([N+](=O)[O-])=C(O)C1=O
dose: 2.0 mg/kg/injection, schedule: Q01DX009 (ip), vehicle: saline with Tween-80
  T/C: 125 % of control
dose: 35.0 mg/kg/injection, schedule: Q01DX009 (ip), vehicle: saline with Tween-80
  T/C: 125 % of control
dose: 50.0 mg/kg/injection, schedule: Q04DX003 (ip), vehicle: saline
  T/C: 136 % of control
dose: 70.0 mg/kg/injection, schedule: Q01DX009 (ip), vehicle: saline with Tween-80
  T/C: 130 % of control

## CC(=O)O[C@]1(C(C)=O)CC[C@H]2[C@@H]3C[C@H](F)C4=CC(=O)CC[C@]4(C)[C@H]3CC[C@@]21C
dose: 200.0 mg/kg/injection, schedule: Q01DX009 (ip), vehicle: Klucel (hydroxypropylcellulose) (HPC)
  survivor count: 6 of 6
dose: 400.0 mg/kg/injection, schedule: Q01DX009 (ip), vehicle: Klucel (hydroxypropylcellulose) (HPC)
  survivor count: 6 of 6

## C[n+]1c2ccccc2c(Nc2ccc(NS(=O)(=O)CCCCN=C(N)N)cc2)c2ccc(N)cc21
dose: 12.0 mg/kg/injection, schedule: Q01DX009 (ip), vehicle: water
  survivor count: 10 of 10
dose: 24.0 mg/kg/injection, schedule: Q01DX009 (ip), vehicle: water
  survivor count: 3 of 10

## CCCCC(C)(CN(C)C)C(=O)/C=C/c1ccc(Cl)c(Cl)c1 (configuration not stated)
dose: 50.0 mg/kg/injection, schedule: Q01DX009 (ip), vehicle: saline
  survivor count: 5 of 6
[8]
  survivor count: 1 of 6
[4]
  survivor count: 0 of 6

## CC(N)Cc1ccc(N(C)C)cc1F (configuration not stated)
[8]
  T/C: 136 % of control
dose: 200.0 mg/kg/injection, schedule: Q01DX009 (ip), vehicle: saline with Tween-80
  survivor count: 1 of 6
[4]
  survivor count: 0 of 6

## Cc1c2c(nn1-c1ccccn1)C(=O)C=C(Nc1ccccc1)C2=O
dose: 17.5 mg/kg/injection, schedule: Q01DX009 (ip), vehicle: carboxymethylcellulose (CMC)
  survivor count: 6 of 6
dose: 35.0 mg/kg/injection, schedule: Q01DX009 (ip), vehicle: carboxymethylcellulose (CMC)
  survivor count: 6 of 6
dose: 70.0 mg/kg/injection, schedule: Q01DX009 (ip), vehicle: carboxymethylcellulose (CMC)
  survivor count: 6 of 6

## Nc1ccc(OCCCCNC(=O)c2ccc(S(=O)(=O)F)cc2)c(Cl)c1
dose: 3.12 mg/kg/injection, schedule: Q01DX009 (ip), vehicle: saline with Tween-80
  survivor count: 6 of 6
dose: 6.25 mg/kg/injection, schedule: Q01DX009 (ip), vehicle: saline with Tween-80
  survivor count: 6 of 6
[9]
  survivor count: 6 of 6
[7]
  survivor count: 3 of 6

## CC1=CC2OC34COC3CC(OC(=O)C(F)(F)F)C4(C)C2(C)CC1 (configuration not stated)
dose: 37.5 mg/kg/injection, schedule: Q04DX003 (ip), vehicle: saline with Tween-80
  T/C: 130 % of control
[3]
  T/C: 125 % of control

## CC(=O)c1ccccc1C(C)C
dose: 225.0 mg/kg/injection, schedule: Q01DX009 (ip), vehicle: saline
  survivor count: 3 of 6
dose: 340.0 mg/kg/injection, schedule: Q01DX009 (ip), vehicle: saline
  survivor count: 0 of 6

## Nc1nc(=S)c2ncn(C3OC(COC(=O)c4ccc(Cl)cc4)C(OC(=O)c4ccc(Cl)cc4)C3OC(=O)c3ccc(Cl)cc3)c2[nH]1 (configuration not stated)
dose: 66.0 mg/kg/injection, schedule: Q01DX009 (ip), vehicle: saline with Tween-80
  T/C: 125 % of control
[2]
  T/C: 136 and 140 % of control
dose: 150.0 mg/kg/injection, schedule: Q01DX009 (ip), vehicle: saline with Tween-80
  T/C: 125 % of control
[6]
  T/C: 145 % of control
dose: 400.0 mg/kg/injection, schedule: Q01DX009 (ip), vehicle: saline with Tween-80
  survivor count: 5 of 6

## CC(=O)[C@]1(O)Cc2c(O)c3c(c(O)c2[C@@H](OC2CC(N)C(O)C(C)O2)C1)C(=O)c1c(OC(C)C)cccc1C3=O (some centres not stated)
dose: 3.13 mg/kg/injection, schedule: Q04DX003 (ip), vehicle: water
  T/C: 126 % of control
dose: 25.0 mg/kg/injection, schedule: Q04DX003 (ip), vehicle: water
  T/C: 135 % of control

## COc1cc(Br)cc(/C=C/[N+](=O)[O-])c1OC
[9]
  T/C: 141 % of control
[1]
  T/C: 148 % of control [5 of 6 alive]
dose: 50.0 mg/kg/injection, schedule: Q01DX009 (ip), vehicle: saline with Tween-80
  survivor count: 4 of 6 and 5 of 6
